Reference: PubChem BioAssay AID1259308 (NCATS, 2017)

Assay: 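Knock-downs that increase output of a recombinant reporter protein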 (primary screen)
Cell system: human HEK293 embryonic kidney cells stably expressing firefly luciferase (HEK-CMV-Luc2-Hygro)
Reagent: single siRNA against human genes, 0.8 pmol siRNA per well
Timing: 72 h
Measurement: 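Luciferase light (ONE-Glo) measured on one replicate plate set and viability (CellTiter-Glo) on the other, scaled to a negative control siRNA, with robust z-scores and luciferase per cell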
Direction: total luciferase, z-score and total luciferase, % of control: higher = more reporter protein produced; luciferase per cell, z-score: higher = more reporter output per viable cell
Active means: 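Active when the median/MAD z-score for overall luciferase is greater than 3; a gene was taken forward for validation with new siRNAs if at least two of its three siRNAs passed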
Calls: active = raised luciferase; inactive = no rise
The whole screen tested about 59,000 reagents; this is a part drawn at random. Of all reagents, about 1,510 (2.6%) were called active. 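Calls use total luciferase alone and ignore viability, so some active siRNAs may act by altering cell number.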 Unmarked entries are inactive. The numbers tell different reagents against one gene apart. Further read-outs or replicates are left out here.

| target | reagent | total luciferase, z-score | total luciferase, % of control | luciferase per cell, z-score |
| --- | --- | --- | --- | --- |
| BBS7 | 1 | 0.231 | 86.5 | -0.126 |
| BBS7 | 2 | -0.382 | 74.3 | -0.49 |
| BBS7 | 3 | 0.768 | 97.2 | 0.306 |
| HSPD1 | 1 | -1.16 | 58.9 | -0.041 |
| HSPD1 | 2 | -0.255 | 76.8 | -0.717 |
| HSPD1 | 3 | -0.705 | 67.9 | -0.806 |
| PIP5K1B | 1 | -1.01 | 61.7 | -1.01 |
| PIP5K1B | 2 | -0.184 | 78.2 | 0.315 |
| PIP5K1B | 3 | -0.85 | 65 | -1.58 |
| LINC01191 | 1 | -0.837 | 65.2 | 0.507 |
| LINC01191 | 2 | -1.49 | 52.3 | 0.187 |
| LINC01191 | 3 | 0.966 | 101 | 1.31 |
| TAF2 | 1 | 1.55 | 113 | 0.753 |
| TAF2 | 2 | -0.0929 | 80 | -0.587 |
| TAF2 | 3 | 0.537 | 92.6 | 0.603 |
| MYD88 | 1 | 2.32 | 128 | 1.7 |
| MYD88 | 2 | -0.501 | 71.9 | -0.399 |
| MYD88 | 3 | -0.841 | 65.2 | 0.19 |
| SUSD6 | 1 | 1.16 | 105 | 0.707 |
| SUSD6 | 2 | -0.16 | 78.7 | 0.863 |
| SUSD6 | 3 | 0.148 | 84.8 | -0.738 |
| RAD51-AS1 | 1 | -1.34 | 55.2 | -1.29 |
| RAD51-AS1 | 2 | -0.136 | 79.2 | -0.098 |
| RAD51-AS1 | 3 | -0.8 | 66 | -1.22 |
| GYS2 | 1 | 0.346 | 88.8 | 0.163 |
| GYS2 | 2 | -0.208 | 77.8 | 0.0597 |
| GYS2 | 3 | -1.1 | 60 | -1.37 |
| UQCRHP2 | 1 | 1.46 | 111 | 1.11 |
| UQCRHP2 | 2 | 0.519 | 92.2 | 0.386 |
| UQCRHP2 | 3 | -0.601 | 69.9 | -0.377 |
| SLC35D1 | 1 | 0.27 | 87.3 | -0.026 |
| SLC35D1 | 2 | 1.46 | 111 | 1.54 |
| SLC35D1 | 3 | 0.443 | 90.7 | 0.191 |
| LOC646034 (retired record) | 1 | 1.74 | 116 | 1.24 |
| LOC646034 (retired record) | 2 | -0.389 | 74.2 | 0.0551 |
| LOC646034 (retired record) | 3 | 1.04 | 103 | 0.505 |
| ARHGAP42 | 1 | -0.795 | 66.1 | -1.18 |
| ARHGAP42 | 2 | -1.99 | 42.3 | -1.3 |
| ARHGAP42 | 3 | -0.0733 | 80.4 | -0.339 |
| ARHGAP42 | 4 | 1.69 | 116 | 1.54 |
| ARHGAP42 | 5 | -0.268 | 76.6 | -0.0503 |
| ARHGAP42 | 6 | 2.23 | 126 | 2.02 |
| LINC02908 | 1 | -0.79 | 66.2 | -0.642 |
| LINC02908 | 2 | 1.39 | 110 | 1.42 |
| LINC02908 | 3 | -1.75 | 47.1 | -1.88 |
| LCP1 | 1 | -0.25 | 76.9 | 0.743 |
| LCP1 | 2 | 0.595 | 93.7 | 1.09 |
| LCP1 | 3 | 0.119 | 84.3 | -0.078 |

A stretch from the list above:
| target | reagent | total luciferase, z-score | total luciferase, % of control | luciferase per cell, z-score |
| --- | --- | --- | --- | --- |
| BBS7 | 3 | 0.768 | 97.2 | 0.306 |
| HSPD1 | 1 | -1.16 | 58.9 | -0.041 |
| HSPD1 | 2 | -0.255 | 76.8 | -0.717 |

The listing continues:
| target | reagent | total luciferase, z-score | total luciferase, % of control | luciferase per cell, z-score |
| --- | --- | --- | --- | --- |
| IQCM | 1 | 2.61 | 134 | 2.06 |
| IQCM | 2 | 1.36 | 109 | 0.662 |
| IQCM | 3 | -1.58 | 50.4 | -1.19 |
| SERPINA9 | 1 | 1.95 | 121 | 1.68 |
| SERPINA9 | 2 | 0.122 | 84.3 | -0.105 |
| SERPINA9 | 3 | 1.48 | 111 | 2.9 |
| RAB5CP2 | 1 | 0.758 | 97 | 0.335 |
| RAB5CP2 | 2 | -0.0831 | 80.2 | 0.474 |
| RAB5CP2 | 3 | 2.21 | 126 | 2.42 |
| ARID1B | 1 | -0.266 | 76.6 | -0.00446 |
| ARID1B | 2 | -1.41 | 53.9 | -1.77 |
| ARID1B | 3 | 0.725 | 96.3 | 1.42 |
| ANKRD49 | 1 | 0.523 | 92.3 | -0.274 |
| ANKRD49 | 2 | -0.406 | 73.8 | -0.761 |
| ANKRD49 | 3 | -0.115 | 79.6 | -0.837 |
| WNT2B | 1 | -0.318 | 75.6 | -0.142 |
| WNT2B | 2 | -0.427 | 73.4 | 0.00427 |
| WNT2B | 3 | 0.918 | 100 | 0.15 |
| PLPP6 | 1 | 0.719 | 96.2 | 1.39 |
| PLPP6 | 2 | -0.246 | 77 | -0.218 |
| PLPP6 | 3 | 2.39 | 129 | 0.845 |
| CILP2 | 1 | 2.44 | 130 | 2.27 |
| CILP2 | 2 | 0.866 | 99.1 | 0.604 |
| CILP2 | 3 | 2.79 | 137 | 3.98 |
| LOC387939 (retired record) | 1 | -2.32 | 35.7 | -2.32 |
| LOC387939 (retired record) | 2 | 0.349 | 88.8 | -0.259 |
| LOC387939 (retired record) | 3 | 0.0264 | 82.4 | 0.383 |
